Earlier results, collected in US20060099690A1, “Extraction, purification and conversion of flavonoids from plant biomass” (Her Majesty the Queen in Right of Canada, as Repre, priority 2002, published 2006).
Read-outs that look alike come from different tables or passages of the source. At least one compound was matched to its structure with a doubt left.

Tests used:
[1] = system: mouse hippocampal cell line HT-22 and rat primary neurons; settings: HT-22 cells and rat primary neurons

Compound	protection from oxidative stress caused by glutamate [1]	volume of water that dissolves one gram (boiling water)	volume of water that dissolves one gram (water at room temperature)
O=c1cc(-c2ccccc2)oc2cc(O)cc(O)c12 [chrysin]	inactive	–	–
C[C@@H]1O[C@@H](OC[C@H]2O[C@@H](Oc3c(-c4ccc(O)c(O)c4)oc4cc(O)cc(O)c4c3=O)[C@H](O)[C@@H](O)[C@@H]2O)[C@H](O)[C@H](O)[C@H]1O [rutin]	inactive	~200 mL	about 8 L
